At least one structure is not confirmed: it was looked up by name or label, or the drawing left a doubt.
Key:
Format in all cases: cell-based, human
NHIK 3025 cells [1] = assay: Cell survival (colony formation) after 24 hr treatment; settings: compared with non-deuterated compound
Source text: (§1) Human cells of the established line NHIK 3025, originating from a cervical carcinoma in situ (Nordbye, K., and Oftebro, R. Exp. Cell Res., 58: 458, 1969), Oftebro, R., and Nordbye, K., Exp. Cell Res., 58: 459-460, 1969) were cultivated in Medium E2a (Puck, T.T. et al., J. Exp. Med., 106:145-165, 1957) supplemented with 20% human (prepared at the laboratory) and 10% horse serum (Grand Island Biological Co.). The cells are routinely grown as monolayers in tissue culture flasks.
(§2) The cells were kept in continuous exponential growth by frequent reculturing, i.e., every second and third day, and synchronized cell populations with a high degree of synchrony were obtained by repeated selection of mitotic cells (Pettersen, E. O. et al, Cell Tissue Kinet., 10: 511-522, 1977). During the synchronization procedure, the cells were kept in Medium E2a, and the whole experiment took place in a walk-in incubator at 37° C. Under growth conditions as used here, the NHIK 3025 cells have a medium cell-cycle time of ~18 hr, with medium G1, S1 and G2 durations of ~7, ~8, and ~2.5 hr, respectively.
For measurement of cell survival, appropriate numbers of cells were seeded in plastic Petri dishes (.phi.=5 cm). […] After 10 to 12 days at 37° C. in a CO2 incubator, the cells were fixed in ethanol and stained with methylene blue before the colonies were counted. […]

NHIK 3025 cells [2] = assay: Protein synthesis rate ((3H)valine incorporation); settings: for Reversibility of protein synthesis inhibition (in words): after pulse treatment, compared with benzaldehyde; for Protein synthesis inhibition (in words): compared with non-deuterated compound
Source text: as §1, §2
The rate of protein synthesis was calculated as described previously (Ronning, O. W. et al., J. Cell Physiol., 107: 47-57, 1981). Briefly, cellular protein was labeled to saturation during a 2-day preincubation with (^14 C)valine of constant specific radioactivity (0.5 Ci/mol) prior to the experiment. This was achieved by using a high concentration of valine so that the dilution of (^14 C)valine by intracellular valine and by proteolytically generated valine will be negligible (Ronning, O. W., et al. Exp. Cell Res. 123: 63-72, 1979), thus keeping the specific radioactivity at a constant level. The rate of protein synthesis was calculated from the incorporation of (3H)valine of constant specific activity. The incorporation measurements were related to the total of (^14 C) radioactivity in protein at the beginning of the respective measurement periods and expressed as the percentage per hr (Ronning, O. W. et al, J. Cell, Physiol. 107: 47-57, 1981).
[…] The last measurements were done to test the reversibility of the drugs. Drug concentration: 3.2 mM.

NHIK 3025 cells [3] = assay: Duration of cell cycle-time of synchronized cells; settings: compared with benzaldehyde
Source text: as §1
as §2, with “respectively. […]” for “respectively.”

NHIK 3025 cells [4] = assay: Duration of mitosis of synchronized cells; settings: compared with benzaldehyde
Source text: as §1
as §2, with “Under growth conditions as used here, the NHIK 3025 cells have a medium cell-cycle time of ~18 hr, with medium G1, S1 and G2 durations of ~7, ~8, and ~2.5 hr, respectively.” left out
This effect is probably directly related to the aldehyde group (Pettersen et al. Cancer Res. 45: 2085-2091, 1985). If the deuterated aldehyde group induces different biological effects from the undeuterated one it is therefore good reason to expect this to be expressed as a difference in effect on cells in mitosis. […]

[5] = listed as Deuterobenzaldhyde-d1

[2H]C(=O)c1ccccc1 [Deuterobenzaldehyde-d1]
Cell inactivation / cell survival (in words) (NHIK 3025 cells [1]): significantly stronger cell inactivation | Reversibility of protein synthesis inhibition (in words) (NHIK 3025 cells [2]): recovery from protein synthesis inhibition was measurably slower | Reversibility of protein synthesis inhibition (in words) (NHIK 3025 cells [2]; [5]): somewhat less reversible than benzaldehyde | Protein synthesis inhibition (in words) (NHIK 3025 cells [2]): relatively equivalent inhibition of protein synthesis | Protein synthesis inhibition (in words) (NHIK 3025 cells [2]; [5]): the protein synthesis inhibition is the same | Increase in cell-cycle duration (in words) (NHIK 3025 cells [3]): more extensive increase in cell-cycle duration than benzaldehyde | Mitotic inhibition / duration of mitosis (in words) (NHIK 3025 cells [4]): clearly more efficient as a mitotic inhibitor than benzaldehyde | Mitotic inhibition / duration of mitosis (in words) (NHIK 3025 cells [4]; listed as deuterobenzaldehyde-d1): significantly more increased
